Measured values published in the supplement of paper PMC8858631.
“And” between values parts separate entries of the source, which are not always exact repeats. Equal values may be shown once. Where a name gives a salt, the structure may show the parent alone. Some of the results follow. Rule as the data show it: active = 0.5 or less and inactive = the rest. Single values are uncertain, as repeats are few or missing.

system: SK-MEL-28; experiment: EEF2K protein level normalised to actin (western blot) after treatment (ratio (EEF2K/Actin)); higher = more EEF2K protein remaining (less EEF2K suppression); conditions: 5 µM; 24 h

Row | Structure (SMILES) | EEF2K protein level normalised to actin
1 | CC[C@@H]1/C=C(\C)C[C@H](C)C[C@H](OC)[C@H]2O[C@@](O)(C(=O)C(=O)N3CCCC[C@H]3C(=O)O[C@H](/C(C)=C/[C@@H]3CC[C@H](Cl)[C@H](OC)C3)[C@H](C)[C@@H](O)CC1=O)[C@H](C)C[C@@H]2OC [Pimecrolimus] | inactive: 0.84
2 | CN(C)c1nc(N(C)C)nc(N(C)C)n1 [Altretamine] | inactive: 1.17
3 | Cc1ccc(Nc2nccc(N(C)c3ccc4c(C)n(C)nc4c3)n2)cc1S(N)(=O)=O [Pazopanib] | inactive: 1.03
4 | Cc1cc2c(C(N)=O)cccc2n1-c1nc2c(c(NCc3ccccc3)n1)COCC2 | inactive: 0.51
5 | CC(=O)c1c(C)c2cnc(Nc3ccc(N4CCNCC4)cn3)nc2n(C2CCCC2)c1=O | inactive: 1.96 and inactive: 0.97
6 | CCCCCCCCCCCCCCCCCCOP(=O)([O-])OC1CC[N+](C)(C)CC1 [Perifosine (KRX-0401)] | inactive: 2.09
7 | Cc1nc(Nc2ncc(C(=O)Nc3c(C)cccc3Cl)s2)cc(N2CCN(CCO)CC2)n1 [Dasatinib Monohydrate] | inactive: 2.3
8 | CCN(CC)CCNC(=O)c1c(C)[nH]c(/C=C2\C(=O)Nc3ccc(F)cc32)c1C [Sunitinib Malate] | inactive: 1.5
9 | COc1cc(/C=C/C(=O)CC(=O)/C=C/c2ccc(O)c(OC)c2)ccc1O [Curcumin] | inactive: 0.75
10 | CC1Oc2cc(cnc2N)-c2c(nn(C)c2C#N)CN(C)C(=O)c2ccc(F)cc21 (stereo unspecified) | inactive: 3.84
11 | NCCNc1ccc(NCCN)c2c1C(=O)c1ccncc1C2=O [Pixantrone Maleate] | active: 0.25
12 | COC(=O)C[C@](O)(CCCC(C)(C)O)C(=O)O[C@@H]1C(OC)=C[C@]23CCCN2CCc2cc4c(cc2[C@H]13)OCO4 [Homoharringtonine] | inactive: 4.31
13 | Nc1ccccc1NC(=O)c1ccc(CNC(=O)OCc2cccnc2)cc1 [Entinostat (MS-275)] | inactive: 0.79
14 | CC(=O)Nc1cccc(-n2c(=O)n(C3CC3)c(=O)c3c(Nc4ccc(I)cc4F)n(C)c(=O)c(C)c32)c1 | inactive: 1.3
15 | O=c1[nH]cc(F)c(=O)[nH]1 [Fluorouracil (5-Fluoracil, 5-FU)] | inactive: 0.6
16 | COc1cc2nccc(Oc3ccc(NC(=O)NC4CC4)c(Cl)c3)c2cc1C(N)=O [lenvatinib Mesylate] | inactive: 0.53
17 | Nc1nnc(-c2cccc(Cl)c2Cl)c(N)n1 [Lamotrigine] | inactive: 0.56
18 | S=c1nc[nH]c2nc[nH]c12 [6-Mercaptopurine (6-MP) Monohydrate] | inactive: 1.17

Taken from above.
EEF2K protein level normalised to actin with S=c1nc[nH]c2nc[nH]c12 [6-Mercaptopurine (6-MP) Monohydrate] reads inactive: 1.17
EEF2K protein level normalised to actin with Cc1nc(Nc2ncc(C(=O)Nc3c(C)cccc3Cl)s2)cc(N2CCN(CCO)CC2)n1 [Dasatinib Monohydrate] reads inactive: 2.3

Next records follow.

Row | Structure (SMILES) | EEF2K protein level normalised to actin
19 | Cc1ccc(NC(=O)c2ccc(CN3CCN(C)CC3)cc2)cc1Nc1nccc(-c2cccnc2)n1 [Imatinib Mesylate (STI571)] | inactive: 0.65
20 | CC1=C(/C=C/C(C)=C/C=C/C(C)=C/C(=O)O)C(C)(C)CCC1 [Tretinoin] | inactive: 0.82
21 | CC[C@@]1(O)C(=O)OCc2c1cc1n(c2=O)Cc2cc3c(CN(C)C)c(O)ccc3nc2-1 [Topotecan] | inactive: 9.27
22 | CC[C@]1(O)C[C@@H]2CN(CCc3c([nH]c4ccccc34)[C@@](C(=O)OC)(c3cc4c(cc3OC)N(C)[C@H]3[C@@](O)(C(=O)OC)[C@H](OC(C)=O)[C@]5(CC)C=CCN6CC[C@]43[C@@H]65)C2)C1 [Vinblastine sulfate] | inactive: 0.82
23 | CCCCNC(=O)NS(=O)(=O)c1ccc(C)cc1 [Tolbutamide] | inactive: 1.8
24 | O=C(c1ccc(F)c(F)c1Nc1ccc(I)cc1F)N1CC(O)([C@@H]2CCCCN2)C1 [Cobimetinib (GDC-0973, RG7420)] | inactive: 0.97
25 | C[C@@H](Oc1cc(-c2cnn(C3CCNCC3)c2)cnc1N)c1c(Cl)ccc(F)c1Cl | active: 0.17
26 | CO[C@H]1O[C@@H]2O[C@@]3(C)CC[C@H]4[C@H](C)CC[C@@H]([C@H]1C)[C@@]24OO3 [Artemether] | inactive: 1.31
27 | Nc1cc(C(Cl)=C(Cl)Cl)c(S(N)(=O)=O)cc1S(N)(=O)=O [Clorsulon] | inactive: 2.22
28 | COc1cc2ncnc(Nc3ccc(F)c(Cl)c3)c2cc1NC(=O)/C=C/CN1CCCCC1 | inactive: 0.51
29 | CC[C@@]1(O)C(=O)OCc2c1cc1n(c2=O)Cc2cc3cc(O)ccc3nc2-1 [Hydroxy Camptothecine] | active: 0.42
30 | CCCCCOC(=O)Nc1nc(=O)n([C@@H]2O[C@H](C)[C@@H](O)[C@H]2O)cc1F [Capecitabine] | inactive: 1.96
31 | COc1cc2/c(=N/c3ccc(Br)cc3F)nc[nH]c2cc1OCC1CCN(C)CC1 [Vandetanib (ZD6474)] | inactive: 1.67
32 | CCN1CCN(Cc2ccc(Nc3ncc(F)c(-c4cc(F)c5nc(C)n(C(C)C)c5c4)n3)nc2)CC1 | inactive: 2.99
33 | CN1C(=O)/C(=C2/C(=O)Nc3ccccc32)c2ccccc21 [Meisoindigo] | inactive: 0.73
34 | C=CC(=O)Nc1cc(Nc2nccc(-c3cn(C)c4ccccc34)n2)c(OC)cc1N(C)CCN(C)C [Osimertinib (AZD9291)] | inactive: 1.08
35 | Nc1ccn([C@@H]2O[C@H](CO)[C@@H](O)C2(F)F)c(=O)n1 [Gemcitabine HCl] | active: 0.31
36 | CCN1CCN(Cc2ccc(Nc3ncc(F)c(-c4cc(F)c5nc(C)n(C(C)C)c5c4)n3)nc2)CC1 [Abemaciclib] | inactive: 1.05
